From article PMC5547156
Results are given in words; binding and its absence hold for the method and conditions named. Binding seen in cells or lysates may run through a third protein. Some binding calls cover weakened binding; strength is not graded here.

Protein sequences, listed by entry. Tags and fused reporters are not part of them.
UniProt P01101: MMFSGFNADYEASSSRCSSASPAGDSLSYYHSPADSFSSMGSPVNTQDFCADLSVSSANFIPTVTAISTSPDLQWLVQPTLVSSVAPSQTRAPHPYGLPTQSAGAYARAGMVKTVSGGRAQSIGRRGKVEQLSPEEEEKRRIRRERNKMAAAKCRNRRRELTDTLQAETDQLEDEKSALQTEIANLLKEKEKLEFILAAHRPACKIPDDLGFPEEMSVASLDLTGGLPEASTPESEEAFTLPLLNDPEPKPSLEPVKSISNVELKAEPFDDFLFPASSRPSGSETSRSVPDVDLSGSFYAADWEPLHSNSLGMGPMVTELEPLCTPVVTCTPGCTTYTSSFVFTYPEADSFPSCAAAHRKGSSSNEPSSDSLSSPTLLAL
UniProt P05627: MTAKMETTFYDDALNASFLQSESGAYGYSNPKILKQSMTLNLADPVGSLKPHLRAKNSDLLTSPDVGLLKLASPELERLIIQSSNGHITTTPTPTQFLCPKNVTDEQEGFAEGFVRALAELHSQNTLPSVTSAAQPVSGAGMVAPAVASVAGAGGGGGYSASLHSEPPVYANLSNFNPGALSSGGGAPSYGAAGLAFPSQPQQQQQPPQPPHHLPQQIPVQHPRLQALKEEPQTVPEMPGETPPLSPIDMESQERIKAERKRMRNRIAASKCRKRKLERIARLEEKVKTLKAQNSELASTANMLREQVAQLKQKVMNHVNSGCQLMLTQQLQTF

Target: c-Fos (mouse (endogenous in murine myoblasts)) (UniProt P01101)
Experiment: co-IP; immunoprecipitation with anti-c-Fos antibodies for 24 h, immunoblot for c-Jun; cells exposed to HIMF

Q: For c-Jun (from UniProt P05627 1-334), which binding is on record?
A: binds
